This test deals with Calcium/calmodulin-dependent protein kinase kinase 2 (CaMKK2), endogenous in LNCaP cells (human (endogenous in LNCaP)) (UniProt Q96RR4). Kind of test: affinity purification with mass spectrometry; endogenous CaMKK2 IP (CaMKK2 antibody, Protein A Dynabeads) from LNCaP lysate, cells with 10 nM R1881 for 24 h or vehicle; rabbit IgG control; mass spectrometry.

Protein sequences, listed by entry. Tags and fused reporters are not part of them.
UniProt Q96RR4: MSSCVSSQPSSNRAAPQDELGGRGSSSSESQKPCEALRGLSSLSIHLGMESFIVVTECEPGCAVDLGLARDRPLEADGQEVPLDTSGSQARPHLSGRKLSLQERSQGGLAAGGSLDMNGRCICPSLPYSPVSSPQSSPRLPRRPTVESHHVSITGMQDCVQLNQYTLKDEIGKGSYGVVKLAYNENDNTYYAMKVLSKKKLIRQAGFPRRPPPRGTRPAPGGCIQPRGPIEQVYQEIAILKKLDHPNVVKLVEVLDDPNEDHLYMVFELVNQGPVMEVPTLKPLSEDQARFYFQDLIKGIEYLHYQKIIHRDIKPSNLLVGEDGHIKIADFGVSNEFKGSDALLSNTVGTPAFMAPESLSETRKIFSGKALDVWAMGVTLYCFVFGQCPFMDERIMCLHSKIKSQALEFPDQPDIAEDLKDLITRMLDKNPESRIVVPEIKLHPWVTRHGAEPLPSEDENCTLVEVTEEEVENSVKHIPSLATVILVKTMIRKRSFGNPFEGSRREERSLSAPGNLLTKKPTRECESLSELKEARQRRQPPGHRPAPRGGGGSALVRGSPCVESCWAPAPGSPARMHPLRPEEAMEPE

These are yes or no findings as the source states them, for the method shown. Binding seen in cells or lysates may run through a third protein. Here binding means that the protein was enriched with, or labelled near, the bait; the list need not be complete.

B1: δ-COP (ARCN1), endogenous in LNCaP cells (protein, UniProt P48444 1-511)
chain: MVLLAAAVCTKAGKAIVSRQFVEMTRTRIEGLLAAFPKLMNTGKQHTFVETESVRYVYQPMEKLYMVLITTKNSNILEDLETLRLFSRVIPEYCRALEENEISEHCFDLIFAFDEIVALGYRENVNLAQIRTFTEMDSHEEKVFRAVRETQEREAKAEMRRKAKELQQARRDAERQGKKAPGFGGFGSSAVSGGSTAAMITETIIETDKPKVAPAPARPSGPSKALKLGAKGKEVDNFVDKLKSEGETIMSSSMGKRTSEATKMHAPPINMESVHMKIEEKITLTCGRDGGLQNMELHGMIMLRISDDKYGRIRLHVENEDKKGVQLQTHPNVDKKLFTAESLIGLKNPEKSFPVNSDVGVLKWRLQTTEESFIPLTINCWPSESGNGCDVNIEYELQEDNLELNDVVITIPLPSGVGAPVIGEIDGEYRHDSRRNTLEWCLPVIDAKNKSGSLEFSIAGQPNDFFPVQVSFVSKKNYCNIQVTKVTQVDGNSPVRFSTETTFLVDKYEIL
As to B1, the binding entry was “binds”.

Source of the values: publication PMC8560770.
